Values from PubChem BioAssay AID1224826 (NIAID, 2016).
This is one part, drawn at random, of about 17,000 reagents. About 1,110 of them (6.6%) were called active. 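Active means lowered or raised reporter signal; replicate intensities are raw and not normalised per plate.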 Not all columns of the deposit are shown. Reagent sequences are not shown.

Aim: 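Knock-downs that raise or lower Tnf reporter signal after endotoxin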 (primary screen)
Cells: RAW264.7 G9 macrophages from mouse bearing reporters for p65 (GFP) and the Tnf promoter (mCherry)
Knock-down reagent: siRNA pool against mouse genes, 100 nM
Timing: 16 h of LPS stimulation, after 2 days of siRNA transfection
Challenge: bacterial lipopolysaccharide (Salmonella minnesota R595), 10 ng/ml
Detection: 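Imaged Tnf reporter mCherry in nuclei, minus background, normalised per plate to the median and expressed as robust z-scores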
Direction: Tnf reporter robust z-score: higher = stronger Tnf promoter reporter signal after LPS
Rule for the call: 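Called active when robust z-score is at most -1.3, matching the median of the Tlr4 knock-down control, or over 3; control wells and wells with under 50 cells never active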
Calls: active = Tnf reporter clearly lowered or raised; inactive = no clear change in Tnf reporter

For Abcb9, the values are Tnf reporter robust z-score 0.62; fewer than 50 cells in well enough cells in well; inactive. Gars1 scored Tnf reporter robust z-score -0.52; fewer than 50 cells in well enough cells in well; inactive. Against Pld4, the entry reads Tnf reporter robust z-score 0.28; fewer than 50 cells in well enough cells in well; inactive. Samd14 gave Tnf reporter robust z-score -1.04; fewer than 50 cells in well enough cells in well; inactive. Depletion of Uts2 came out at: fewer than 50 cells in well fewer than 50 cells per well; well left out of calls; inactive. Against Lrrc4b, the entry reads Tnf reporter robust z-score 0.75; fewer than 50 cells in well enough cells in well; inactive.

A030005L19Rik scored Tnf reporter robust z-score -0.1; fewer than 50 cells in well enough cells in well; inactive. Knock-down of Mylk2 resulted in: fewer than 50 cells in well fewer than 50 cells per well; well left out of calls; inactive. After knock-down of Ggta1, the screen gave Tnf reporter robust z-score -1.5; fewer than 50 cells in well enough cells in well; active.

In a second layout: 2 of the entries above
| Gene | Tnf reporter robust z-score | fewer than 50 cells in well | call |
| --- | --- | --- | --- |
| Gars1 | -0.52 | enough cells in well | inactive |
| Pld4 | 0.28 | enough cells in well | inactive |

Additional entries follow:
Depletion of Gpha2 came out at: Tnf reporter robust z-score 0.81; fewer than 50 cells in well enough cells in well; inactive. After knock-down of Cdc5l, the screen gave Tnf reporter robust z-score -0.59; fewer than 50 cells in well enough cells in well; inactive. Silencing of Mme gave: Tnf reporter robust z-score 0.53; fewer than 50 cells in well enough cells in well; inactive. Or8k20 gave Tnf reporter robust z-score -0.32; fewer than 50 cells in well enough cells in well; inactive. Silencing of Sez6 resulted in: Tnf reporter robust z-score -0.23; fewer than 50 cells in well enough cells in well; inactive. With knock-down of Fgf17, the record shows Tnf reporter robust z-score -0.62; fewer than 50 cells in well enough cells in well; inactive.

Against Wdr3, the entry reads Tnf reporter robust z-score -0.29; fewer than 50 cells in well enough cells in well; inactive. Hdgfl1 gave Tnf reporter robust z-score 0.7; fewer than 50 cells in well enough cells in well; inactive. After knock-down of Gabrg2, the screen gave Tnf reporter robust z-score -0.76; fewer than 50 cells in well enough cells in well; inactive. Against Emg1, the values are Tnf reporter robust z-score 0.22; fewer than 50 cells in well enough cells in well; inactive. Silencing of Ankrd24 gave: Tnf reporter robust z-score -1.38; fewer than 50 cells in well enough cells in well; active. After knock-down of Cbx8, the screen gave Tnf reporter robust z-score 0.47; fewer than 50 cells in well enough cells in well; inactive.
